Assay results published in PubChem BioAssay AID720504 (National Center for Advancing Translational Sciences (NCATS), 2013).
Screen size: about 360,000 compounds; about 10,000 (2.8%) were called active. Inconclusive results, whose numbers are uncertain, are shown with a selection of clear calls. Calls come from the whole dose curve; as a rule, active = well fitted inhibition curve with a large enough effect; inconclusive = small, poorly fitted or top-dose-only effect; inactive = flat fitted curve, though single readings scatter. Potencies of inconclusive entries are doubtful fits and often do not repeat.

By UniProt entry, the sequences of proteins in these tests, tags left out.
UniProt P53350, whole entry, looked up: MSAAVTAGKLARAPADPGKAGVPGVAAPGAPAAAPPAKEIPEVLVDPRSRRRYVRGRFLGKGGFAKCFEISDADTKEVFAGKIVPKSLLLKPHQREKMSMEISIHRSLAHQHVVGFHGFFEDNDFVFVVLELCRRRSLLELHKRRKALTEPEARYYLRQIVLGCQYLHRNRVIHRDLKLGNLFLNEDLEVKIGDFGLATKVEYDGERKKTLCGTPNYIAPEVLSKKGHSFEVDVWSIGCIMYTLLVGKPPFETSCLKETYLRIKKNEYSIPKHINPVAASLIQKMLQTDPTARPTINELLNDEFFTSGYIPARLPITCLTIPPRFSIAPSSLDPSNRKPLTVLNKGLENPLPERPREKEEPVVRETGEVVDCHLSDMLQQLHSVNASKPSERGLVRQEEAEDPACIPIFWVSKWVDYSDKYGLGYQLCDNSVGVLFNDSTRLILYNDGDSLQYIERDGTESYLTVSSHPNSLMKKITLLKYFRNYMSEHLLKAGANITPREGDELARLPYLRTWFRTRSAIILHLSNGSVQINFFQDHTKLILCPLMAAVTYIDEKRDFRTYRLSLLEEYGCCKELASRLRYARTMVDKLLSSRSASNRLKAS

target: Serine/threonine-protein kinase PLK1 (Homo sapiens) (UniProt P53350); assay: qHTS for Inhibitors of PLK1-PDB (polo-like kinase 1 - polo-box domain): Primary Screen; details: Plk1 PBD binding of FITC phosphopeptide, fluorescence polarization; note: nearly all actives have a fitted effect of over 65% in size; for max response, negative = inhibition: series mostly up to about 57 µM
% is set by controls: 0 for no effect and ±100 for the full control effect; potency is the fitted concentration of half-maximal effect.

| SMILES | max response, negative = inhibition | Potency |
| --- | --- | --- |
| Cc1ccc(SCc2cc(=O)c3c(=O)n(-c4ccccc4)[nH]c3[nH]2)cc1 | inactive: -27.2% | – |
| COc1ccc(-c2nnc(SCC(=O)Nc3ccc(C(=O)O)cc3)n2-c2ccc(Cl)cc2)cc1 | – | inconclusive: 75.2 µM [inhibitor, single point] |
| Oc1cccc(C(=S)N2CCN(Cc3ccccc3)CC2)c1 | – | active: 15 µM |
| Cc1sc2nc(COC(=O)CNC(=O)c3ccc(C(C)(C)C)cc3)[nH]c(=O)c2c1C | inactive: 3.56% | – |
| Cc1cc(SCC(=O)NC(=O)NCc2ccco2)nc2ccccc12 | – | inconclusive: 26.7 µM [inhibitor, partial curve] |
| COc1ccc(C)cc1Nc1nc(-c2c[nH]c3ccccc23)cs1 | inconclusive: -32.8% [inhibitor] | – |
| CCOc1cccc(/C=N/NS(=O)(=O)c2ccc(C)c([N+](=O)[O-])c2)c1O | – | active: 29.9 µM |
| COc1cc(CO)cc(Br)c1OCC(=O)O | – | inconclusive: 26.7 µM [inhibitor, single point] |
| Cn1cc(Cl)c(C(=O)NNC(=S)NCc2ccco2)n1 | – | active: 26.7 µM |
| CC(Oc1ccc(F)cc1)C(=O)Nc1cccc(-c2nn[nH]n2)c1 (stereo not given) | – | active: 21.2 µM |
| O=C(c1ccc(COc2ccc(Cl)cc2)o1)N1CCN(Cc2ccc3c(c2)OCO3)CC1 | inactive: 0.41% | – |
| Cc1ccc(/C=N/NC(=O)Cc2ccc(Cl)cc2)c(O)c1 | – | inconclusive: 26.7 µM [inhibitor, single point] |
| CC(C)=NOC(=O)c1ccc(-c2ccccc2)cc1 | – | inconclusive: 26.7 µM [inhibitor, single point] |
| CCCC1Nc2ccc(C(=O)O)cc2C2C=CCC12 (stereo not given) | – | inconclusive: 26.7 µM [inhibitor, single point] |
| Fc1cc(F)c(F)c(SCCc2ccncc2)c1F | – | inconclusive: 11.9 µM [inhibitor, partial curve] |
| O=C(NC(=S)Nc1cccc(S(=O)(=O)NC2=NCCC2)c1)c1cc(-c2ccco2)nc2ccccc12 | – | inconclusive: 26.7 µM [inhibitor, partial curve] |
| c1ccc(SCc2nc3ccccc3s2)nc1 | – | active: 18.9 µM |
| CC(C)c1ccccc1NC(=O)COC(=O)/C=C/c1cccc([N+](=O)[O-])c1 | – | active: 15 µM |
| O=C(CC1C(=O)NCCN1Cc1cccc(Oc2ccccc2)c1)NCCCn1cccn1 (stereo not given) | – | inconclusive: 21.2 µM [inhibitor, partial curve] |
| CC[n+]1ccc2cc(OC)c(OC)cc2c1Cc1ccc(OC)c(OC)c1 | – | inconclusive: 8.44 µM [inhibitor, partial curve] |
| CN1CCN(NC(=O)c2cn(-c3ccccc3)nc2-c2cccs2)CC1 | – | inconclusive: 15 µM [inhibitor, partial curve, poor fit] |
| BrC(/C=C\c1ccccc1)=N/Nc1nc(N2CCOCC2)nc(N2CCOCC2)n1 | – | inconclusive: 37.7 µM [inhibitor, partial curve] |
| Cn1cccc1Cc1nnc(SCC(=O)N2CCc3ccccc32)n1-c1ccc(F)cc1 | – | inconclusive: 26.7 µM [inhibitor, single point] |
| CN(CC(=O)Nc1cccc(F)c1)C(=O)CNS(=O)(=O)c1ccc(N(C)C)c([N+](=O)[O-])c1 | – | active: 15 µM |

| SMILES | max response, negative = inhibition | Potency |
| --- | --- | --- |
| Cc1ccc(S(=O)(=O)NN2C(=O)/C(=C/c3ccc(F)cc3)SC2=S)cc1 | – | inconclusive: 37.7 µM [inhibitor, single point] |
| O=C(CCN1C(=O)c2ccccc2C1=O)Nc1ccccc1C(=O)N1CCOCC1 | inconclusive: -30.6% [inhibitor] | – |
| Cc1ccccc1N1C(S)=C(C#N)C(=O)NC1c1cccs1 (stereo not given) | – | inconclusive: 29.9 µM [inhibitor, partial curve] |
| CCSC1=NC(C)(C)C=C(/C=C/c2ccc(Cl)cc2Cl)N1 | – | inconclusive: 29.9 µM [inhibitor, partial curve] |
| Cc1ccccc1CC1(CO)CCCN(Cc2cn[nH]c2-c2ccccc2)C1 (stereo not given) | – | inconclusive: 37.7 µM [inhibitor, single point] |
| Cc1ccc(NC(=O)C[n+]2ccccc2)cc1[N+](=O)[O-] | – | inconclusive: 26.7 µM [inhibitor, single point] |
| CCOC(=O)C(=O)Cc1cccnn1 | – | inconclusive: 26.7 µM [inhibitor, single point] |
| C=C(C)CNC(=S)N/N=C\c1ccc2c(c1)OCO2 | – | inconclusive: 23.8 µM [inhibitor, single point] |
| COC(=O)c1ccc(CN2CCN(Cc3ccc(C(=O)OC)o3)CC2)o1 | inactive: -6.47% | – |
| CC1CSc2nc3sc4c(c3c(=O)n21)CCCC4 (stereo not given) | inconclusive: -35.4% [inhibitor] | – |
| Cc1cc(=O)oc2cc(OCC(=O)OCC(=O)NC(C)C)ccc12 | inactive: -3.43% | – |
| COc1cc(NC(=O)Cn2cnc(S(=O)(=O)N3CCCC3)c2)cc(OC)c1OC | – | inconclusive: 16.8 µM [inhibitor, partial curve] |
| CC(=O)Nc1ccc2c(c1)C(=O)N(c1ccc(C)cc1)C2=O | – | inconclusive: 23.8 µM [inhibitor, partial curve, poor fit] |
| CCSc1nc(-c2ccco2)ccc1C#N | – | inconclusive: 26.7 µM [inhibitor, single point] |
| N#Cc1ccccc1CSc1nc2ccc(NC(=O)c3ccccc3C(=O)O)cc2s1 | inconclusive: -31.4% [inhibitor] | – |
| COc1cc([C@@H]2C[C@H]3CN(c4ccccc4)C(=O)[C@]34CCCN24)cc(OC)c1OC | inactive: -1.64% | – |
| Cc1ccc(-c2[nH]c(-c3ccc(C(=O)O)cc3)nc2-c2ccccc2)cc1 | – | inconclusive: 18.9 µM [inhibitor, partial curve] |
| O=C(Nc1ccc2oc(-c3ccncc3)nc2c1)c1cccs1 | inactive: -3.61% | – |
| O=C(CSc1nnc(-c2cccc(Br)c2)o1)N1CCNC1=O | inactive: -8.43% | – |
| COc1cc(C2c3sc(=O)[nH]c3SC3C4CCC(C4)C23)ccc1O (stereo not given) | – | inconclusive: 18.9 µM [inhibitor, partial curve] |
| COc1cc(C2CC(=O)Oc3c2c(=O)n(C)c2ccccc32)ccc1O (stereo not given) | – | inconclusive: 21.2 µM [inhibitor, single point] |
| CCOC(=O)C1CCN(S(=O)(=O)c2ccc3c(c2)N(C)C(=O)CC(=O)N3C)CC1 | – | inconclusive: 26.7 µM [inhibitor, single point] |
| Cc1cc(NC(=O)CSc2ccccn2)no1 | – | inconclusive: 26.7 µM [inhibitor, single point] |
| COc1cccc(Nc2nc(-c3sc(N)nc3C)cs2)c1 | – | inconclusive: 29.9 µM [inhibitor, single point] |

Reprinted at random: 5 entries already listed

| SMILES | max response, negative = inhibition | Potency |
| --- | --- | --- |
| O=C(c1ccc(COc2ccc(Cl)cc2)o1)N1CCN(Cc2ccc3c(c2)OCO3)CC1 | inactive: 0.41% | – |
| CC(C)=NOC(=O)c1ccc(-c2ccccc2)cc1 | – | inconclusive: 26.7 µM [inhibitor, single point] |
| Cc1ccc(/C=N/NC(=O)Cc2ccc(Cl)cc2)c(O)c1 | – | inconclusive: 26.7 µM [inhibitor, single point] |
| c1ccc(SCc2nc3ccccc3s2)nc1 | – | active: 18.9 µM |
| CCSc1nc(-c2ccco2)ccc1C#N | – | inconclusive: 26.7 µM [inhibitor, single point] |

(next part)

| SMILES | max response, negative = inhibition | Potency |
| --- | --- | --- |
| COC(=O)c1ccc2nc(-c3ccco3)c(Cc3cccc(Cl)c3)n2c1 | inactive: -28.6% | – |
| CCCCN(C(=O)C1CC(=O)N(c2ccc(C)cc2)C1)c1c(N)n(CCC)c(=O)[nH]c1=O (stereo not given) | inactive: -9.21% | – |
| COc1ccc(-c2nc3ccccc3n2OC(C)C(=O)O)cc1 (stereo not given) | inactive: -0.533% | – |
| CCOC(=O)CSc1nc2c(c(=O)[nH]c(=O)n2C)n1CCc1ccccc1 | inactive: 0.641% | – |
| CCN(CC)C(=O)c1sc(NC(=O)c2c(OC)cccc2OC)c(C#N)c1C | – | inconclusive: 23.8 µM [inhibitor, partial curve] |
| O=C(COc1cccc(Br)c1)N/N=C1\CCSC1 | – | active: 21.2 µM |
| O=C(NCc1ccc(Cl)cc1)C(=O)Nc1nccs1 | inactive: -1.97% | – |
| COc1ccc(C2SCC(=O)N2c2c(C)n(C)n(-c3ccccc3)c2=O)cc1OC (stereo not given) | – | inconclusive: 23.8 µM [inhibitor, single point] |
| CSc1nc(-c2ccco2)nn1C(=O)c1cccs1 | inconclusive: -33.9% [inhibitor] | – |
| O=C(O)c1ccc(Nc2nc3c(s2)CCCC3)cc1 | inconclusive: -33.9% [inhibitor] | – |
| CCOC(=O)C1(CCOc2ccccc2)CCN(Cc2cc(OC)c(O)c(OC)c2)CC1 | – | inconclusive: 21.2 µM [inhibitor, single point] |
| O=C1OC(NC(=O)c2ccccc2)C(n2cc(CO)nn2)=C1Cl (stereo not given) | – | active: 9.47 µM |
| COc1ccc(S(=O)(=O)n2nc(OC(=O)c3ccncc3)cc2N)cc1 | – | active: 26.7 µM |
| Cc1ccc(-c2nnc(N3CCN(C(=O)CSc4ncn[nH]4)CC3)c3ccccc23)cc1 | – | inconclusive: 26.7 µM [inhibitor, single point] |
| Cc1nc2c(C(=O)NCCC3=CCCCC3)c[nH]n2c(=O)c1Cl | – | active: 23.8 µM |
| CNC(=S)Nc1ccc(OC)c(OC)c1 | inactive: -5.7% | – |
| CCOC(=O)C1=C(C)NC(C)=C(C(=O)OCCNC(=O)c2cccnc2)C1c1cccc([N+](=O)[O-])c1 (stereo not given) | – | inconclusive: 26.7 µM [inhibitor, partial curve] |
| CC1(C)CC(N2CCN(Cc3ccccc3)CC2)=CC(=[N+]2CCCCC2)C1 | inconclusive: -36.1% [inhibitor] | – |
| O=c1c(-c2cc3ccccc3o2)[n+]([O-])c2ccccc2n1OCc1ccccn1 | – | inconclusive: 29.9 µM [inhibitor, single point] |
| CCOc1ccc(CCNC(=O)C2CC(C)=CCC2C(=O)O)cc1OCC (stereo not given) | – | inconclusive: 37.7 µM [inhibitor, single point] |
| CCOc1ccccc1NC(=O)CSc1c(C)n[nH]c1C | – | inconclusive: 26.7 µM [inhibitor, partial curve] |
| COc1ccc(S(=O)(=O)N2CCC(O)(c3cccnc3)CC2)cc1OC | – | inconclusive: 18.9 µM [inhibitor, partial curve] |
